Measurements reported in PMC6504953, “Cauliflower mosaic virus transactivator protein (TAV) can suppress nonsense-mediated decay by targeting VARICOSE, a scaffold protein of the decapping complex” (Scientific Reports, 2019).
Read-outs that look alike come from different tables or passages of the source. These are yes or no findings as the source states them, for the method shown. Some entries that bind do so weakly or less than the wild type. For part of these data: Where a sequence is shown, tags or fusion partners need not be part of it.

Sequences of proteins named here, by UniProt entry; tags and fusion partners are left off. A change or cut given only in a name is not applied to a line headed by its entry.
UniProt P03558: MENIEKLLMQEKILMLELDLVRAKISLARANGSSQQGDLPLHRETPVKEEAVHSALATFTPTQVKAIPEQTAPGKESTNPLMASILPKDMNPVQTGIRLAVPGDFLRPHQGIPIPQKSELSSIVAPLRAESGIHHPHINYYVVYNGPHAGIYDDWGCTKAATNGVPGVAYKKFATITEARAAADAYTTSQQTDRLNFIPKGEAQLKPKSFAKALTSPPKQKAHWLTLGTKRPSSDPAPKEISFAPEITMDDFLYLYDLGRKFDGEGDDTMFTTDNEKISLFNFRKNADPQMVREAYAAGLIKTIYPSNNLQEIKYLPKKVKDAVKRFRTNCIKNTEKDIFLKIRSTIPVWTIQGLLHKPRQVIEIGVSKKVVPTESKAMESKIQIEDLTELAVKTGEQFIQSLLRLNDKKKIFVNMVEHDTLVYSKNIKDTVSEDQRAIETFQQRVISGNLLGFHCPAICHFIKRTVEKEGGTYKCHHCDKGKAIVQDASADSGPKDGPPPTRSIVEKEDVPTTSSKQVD

Columns and labels:
Assay in all cases: two-hybrid; Gal4 AD and BD fusions co-transformed in yeast strain AH109; selection on medium lacking Leu, Trp and Ade; equal OD600 units and 1/10 and 1/100 dilutions spotted, 2 days; self-interaction of TAV: two fusions of entire TAV
[1] = molecular target: Cauliflower mosaic virus translation transactivator/viroplasmin (TAV), strain CM1841, fused to the Gal4 activation domain (Cauliflower mosaic virus (strain CM1841)) (UniProt P03558)
[2] = molecular target: VCS-C2 domain (aa 1181-1341) fused to the Gal4 binding domain (A. thaliana) (UniProt Q9LTT8)
[3] = molecular target: Amino terminal portion of TAV (NTAV, residues 26-242) fused to the Gal4 binding domain (Cauliflower mosaic virus (strain CM1841)) (UniProt P03558)
[4] = molecular target: Cauliflower mosaic virus translation transactivator/viroplasmin (TAV), strain CM1841, fused to the Gal4 binding domain (Cauliflower mosaic virus (strain CM1841)) (UniProt P03558)
[5] = molecular target: Amino terminal portion of TAV (NTAV, residues 26-242) fused to the Gal4 binding domain (Cauliflower mosaic virus (strain CM1841)) (UniProt P03558); remark: listed apart in the source
[6] = molecular target: Cauliflower mosaic virus translation transactivator/viroplasmin (TAV), strain CM1841, fused to the Gal4 binding domain (Cauliflower mosaic virus (strain CM1841)) (UniProt P03558); remark: listed apart in the source

For “Cauliflower mosaic virus translation transactivator/viroplasmin (TAV), strain CM1841, fused to the Gal4 activation domain (from UniProt P03558 1-520)”, the binding [1] was “binds” and the binding [2] was “binds”.

In the case of “VCS-C2 domain (aa 1181-1341) fused to the Gal4 activation domain (from UniProt Q9LTT8 1181-1341) (domain or fragment)”, the binding [3] is reported as “binds” and the binding [4] is reported as “binds”.

B1: VARICOSE (VCS), entire protein, fused to the Gal4 activation domain (natural protein, A. thaliana, UniProt Q9LTT8 1-1344, looked up)
chain: MASSPGNTNPHNTPPFDLGILFKPSSNPYPPPAASYPPPTGPFLHNQYDQQHYAPPGISAQPSPVTQQQQDVSSSSAATNLHPQRTLSYPTPPLNLQSPRSNHNPGTHILALLNNTNNGAPVANQEPSHQLPVVNHNEIARSFPGGSGPIRVPSCKLPKGRRLIGEHAVYDVDVRLQGEIQPQLEVTPITKYGSDPQLVVGRQIAVNKVYICYGLKGGNIRVLNINTALRSLFRGHSQRVTDMAFFAEDVDMLASVSLDGKVFVWKISEGSEGEDQPQITGKIVLALQILGEEDTKHPRVCWHCHKQEILVVSIGKHVLRIDTTKVGRGEVFSAEAPLQCPLDKLIDGVQIVGKHDGEVTDLSMCQWMTTRLVSSSVDGTIKIWQDRKAQPLVVLRPHDGHPVSSATFVTSPERPDHIILITGGPLNREMKIWVSAGEEGWLLPADAESWRCTQTLDLKSSTEPRAEEAFFNQVIALSEAGLLLLANAKRNALYAVHLDYGSSPVGTRMDYLSEFTVTMPILSFIGTNDPPEEPIVKVYCVQTLAIQQYTLDLCLCLPPPIENMGLEKSDSSVSREANLVEGMSEPSGLKPTDLPSVDSVPKPSIIVNRSESANKLSFPSAEATSQAIVPPNGEPKTSGLPSQTSGAGSAYATLPQLPLSPRLSSKLSGYHTPVEAIEPVIPHHELGGKTPSADYSVDRQMDAVGERNLDVSSVEEISRSKDSNVTPDDDVSGMRSPSAFFKHPTHLVTPSEILMGVSSAEASITTEDRRDRDANIQDVNNDPRDTEVEVKEISEARSTQNGEINDHDETENCTSENREKVFCSQVSNLSTEMARDCYPSTEGTFIPGESKAYGQPIKAGDESGVDSRGGPAKLLKGKKQKAKNSQGPGLSSTSSNVANLADSFNEQSQSLSHPMTDLLPQLLAMQETMNQVMASQKEMQRQLSNAATGPIGKESKRLEVALGRMIEKSSKSNADALWARIQEETVKNEKALRDHAQQIVNATTNFMSKELNAMFEKTIKKELAAIGPALARSVVPVIEKTVSSAITESFQRGIGDKAVNQLDKSVNIKLEATVARQIQAQFQTSGKQALQEGLRSSVESSVIPSFEKACKAMFDQIDSAFQKGIAEHTNAAQQRFDSGHSQLAHTLKESITSASSVAQALSRELAETQRNLLALAAAGANSGGSNSLVTQLSGGPLGALLEKVEAPMDPTTELSRLISERKYEESFTSALQRSDVSIVSWLCSQVDLRGLLAMNPLPLSQGVLLSLLQQLACDISKDTSRKLAWMTDVVAAINPSDQMIAVHARPIFEQVYQILHHHRNAPGSDVSAIRLIMHVINSMLMGCK
B1 was tested, and the binding [5] was “binds” and the binding [6] was “no binding”.
